Test results published in paper PMC10810860.
These are yes or no findings as the source states them, for the method shown. In cells and extracts the contact can be indirect. Binding can be weak; no strength is given.

Protein sequences, listed by entry. Tags and fused reporters are not part of them. Lines headed by an entry give the natural chain unless they say otherwise; changes in a name come on top.
UniProt Q16665: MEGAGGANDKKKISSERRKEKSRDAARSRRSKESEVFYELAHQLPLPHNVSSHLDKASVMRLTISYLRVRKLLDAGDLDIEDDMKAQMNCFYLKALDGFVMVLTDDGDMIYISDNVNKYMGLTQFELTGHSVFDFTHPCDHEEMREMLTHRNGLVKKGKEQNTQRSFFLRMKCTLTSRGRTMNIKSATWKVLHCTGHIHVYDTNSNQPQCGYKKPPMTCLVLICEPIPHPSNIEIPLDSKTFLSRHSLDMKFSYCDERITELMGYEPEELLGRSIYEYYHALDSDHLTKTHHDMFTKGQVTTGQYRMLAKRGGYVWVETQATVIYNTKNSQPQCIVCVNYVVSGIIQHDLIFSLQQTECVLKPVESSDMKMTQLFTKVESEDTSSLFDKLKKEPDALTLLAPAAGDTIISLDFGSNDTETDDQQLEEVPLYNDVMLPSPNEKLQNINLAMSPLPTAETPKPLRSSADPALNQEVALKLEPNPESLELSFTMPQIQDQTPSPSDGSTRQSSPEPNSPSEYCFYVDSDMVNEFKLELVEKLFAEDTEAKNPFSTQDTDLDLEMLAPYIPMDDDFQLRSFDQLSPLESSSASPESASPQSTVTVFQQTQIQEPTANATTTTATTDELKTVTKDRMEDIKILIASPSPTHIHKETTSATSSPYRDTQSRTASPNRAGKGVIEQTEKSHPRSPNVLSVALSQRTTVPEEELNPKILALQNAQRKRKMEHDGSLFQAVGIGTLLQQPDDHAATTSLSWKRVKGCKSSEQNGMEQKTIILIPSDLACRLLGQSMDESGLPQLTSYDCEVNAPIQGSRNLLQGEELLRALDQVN
UniProt Q96EP0: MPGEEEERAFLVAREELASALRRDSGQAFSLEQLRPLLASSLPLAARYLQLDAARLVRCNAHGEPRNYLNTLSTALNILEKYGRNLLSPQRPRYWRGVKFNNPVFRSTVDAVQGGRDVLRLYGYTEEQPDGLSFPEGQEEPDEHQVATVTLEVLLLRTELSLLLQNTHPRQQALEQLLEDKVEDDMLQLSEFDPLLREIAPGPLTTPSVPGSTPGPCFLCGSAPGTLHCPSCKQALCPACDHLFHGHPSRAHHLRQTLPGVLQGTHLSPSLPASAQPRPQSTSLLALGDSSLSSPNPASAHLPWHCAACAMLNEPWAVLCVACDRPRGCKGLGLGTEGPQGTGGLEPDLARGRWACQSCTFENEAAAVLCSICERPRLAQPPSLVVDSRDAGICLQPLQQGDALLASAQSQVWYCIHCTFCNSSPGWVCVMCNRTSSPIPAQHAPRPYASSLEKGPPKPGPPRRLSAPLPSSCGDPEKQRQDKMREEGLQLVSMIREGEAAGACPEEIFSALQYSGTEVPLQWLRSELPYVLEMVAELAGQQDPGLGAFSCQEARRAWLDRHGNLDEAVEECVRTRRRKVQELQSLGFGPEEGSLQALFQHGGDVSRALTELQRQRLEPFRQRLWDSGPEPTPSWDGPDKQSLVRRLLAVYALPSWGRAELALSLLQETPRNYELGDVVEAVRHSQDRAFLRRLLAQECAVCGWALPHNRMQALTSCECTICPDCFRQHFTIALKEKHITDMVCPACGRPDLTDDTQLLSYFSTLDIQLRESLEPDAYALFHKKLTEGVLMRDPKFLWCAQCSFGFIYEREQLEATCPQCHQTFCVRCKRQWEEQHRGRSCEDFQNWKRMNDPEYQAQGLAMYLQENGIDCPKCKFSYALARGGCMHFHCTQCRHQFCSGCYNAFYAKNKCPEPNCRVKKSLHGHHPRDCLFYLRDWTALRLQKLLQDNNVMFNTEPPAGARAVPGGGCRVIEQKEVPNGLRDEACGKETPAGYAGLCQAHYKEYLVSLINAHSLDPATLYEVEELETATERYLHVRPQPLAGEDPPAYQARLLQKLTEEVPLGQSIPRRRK

Molecular target: HIF1α^PA, prolyl hydroxylation-resistant mutant of HIF1α (UniProt Q16665)
Experiment: co-IP; co-IP/IB from lysates of HEK293T cells transfected as indicated (antibody with Protein A/G agarose overnight, then immunoblot)

HOIP (HOIL-1L interacting protein), full-length, expressed by transfection (from UniProt Q96EP0 1-1072) (enzyme)
binding: binds
